These are yes or no findings as the source states them, for the method shown. Binding seen in cells or lysates may run through a third protein. Some binding calls cover weakened binding; strength is not graded here.

Sequences of proteins named here, by UniProt entry; tags and fusion partners are left off.
UniProt Q28141: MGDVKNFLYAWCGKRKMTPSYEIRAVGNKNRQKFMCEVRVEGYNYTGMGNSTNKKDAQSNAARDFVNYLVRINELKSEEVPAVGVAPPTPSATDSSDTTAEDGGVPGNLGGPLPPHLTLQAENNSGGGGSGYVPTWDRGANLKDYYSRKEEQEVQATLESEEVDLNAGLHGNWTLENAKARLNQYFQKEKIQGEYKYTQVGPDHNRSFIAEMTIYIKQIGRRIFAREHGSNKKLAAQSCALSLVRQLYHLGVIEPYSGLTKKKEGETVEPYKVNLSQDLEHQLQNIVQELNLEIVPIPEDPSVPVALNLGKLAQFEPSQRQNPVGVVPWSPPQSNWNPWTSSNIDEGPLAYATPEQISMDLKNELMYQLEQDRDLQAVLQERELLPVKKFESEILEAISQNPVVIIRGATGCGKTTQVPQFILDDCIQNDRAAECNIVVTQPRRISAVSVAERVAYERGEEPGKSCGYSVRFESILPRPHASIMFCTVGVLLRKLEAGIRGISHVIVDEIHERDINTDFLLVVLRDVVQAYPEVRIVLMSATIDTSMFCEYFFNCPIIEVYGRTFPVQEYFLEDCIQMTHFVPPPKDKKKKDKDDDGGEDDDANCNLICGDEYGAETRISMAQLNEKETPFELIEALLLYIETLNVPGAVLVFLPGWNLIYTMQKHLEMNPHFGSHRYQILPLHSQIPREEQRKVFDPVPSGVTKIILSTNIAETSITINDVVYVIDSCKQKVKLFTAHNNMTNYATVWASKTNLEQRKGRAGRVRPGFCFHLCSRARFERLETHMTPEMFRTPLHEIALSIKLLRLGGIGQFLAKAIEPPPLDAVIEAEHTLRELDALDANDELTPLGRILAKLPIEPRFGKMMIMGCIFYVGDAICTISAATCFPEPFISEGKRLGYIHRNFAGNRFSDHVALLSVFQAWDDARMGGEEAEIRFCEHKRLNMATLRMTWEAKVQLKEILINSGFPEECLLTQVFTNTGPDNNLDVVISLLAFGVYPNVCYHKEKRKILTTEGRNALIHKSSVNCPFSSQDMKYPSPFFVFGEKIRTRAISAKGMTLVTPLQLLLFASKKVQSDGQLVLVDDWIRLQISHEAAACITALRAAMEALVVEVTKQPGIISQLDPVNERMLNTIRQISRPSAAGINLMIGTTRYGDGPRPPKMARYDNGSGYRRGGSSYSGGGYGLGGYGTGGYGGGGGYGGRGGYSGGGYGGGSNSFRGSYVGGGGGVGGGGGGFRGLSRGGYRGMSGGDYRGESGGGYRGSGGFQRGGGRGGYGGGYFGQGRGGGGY
UniProt F1N4J1: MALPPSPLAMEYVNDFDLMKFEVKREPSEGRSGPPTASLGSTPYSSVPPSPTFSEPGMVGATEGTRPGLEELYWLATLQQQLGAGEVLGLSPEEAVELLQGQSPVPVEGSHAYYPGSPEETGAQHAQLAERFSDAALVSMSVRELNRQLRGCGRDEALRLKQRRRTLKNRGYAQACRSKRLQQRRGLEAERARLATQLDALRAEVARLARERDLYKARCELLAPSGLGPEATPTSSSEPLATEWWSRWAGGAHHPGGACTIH
UniProt Q08211: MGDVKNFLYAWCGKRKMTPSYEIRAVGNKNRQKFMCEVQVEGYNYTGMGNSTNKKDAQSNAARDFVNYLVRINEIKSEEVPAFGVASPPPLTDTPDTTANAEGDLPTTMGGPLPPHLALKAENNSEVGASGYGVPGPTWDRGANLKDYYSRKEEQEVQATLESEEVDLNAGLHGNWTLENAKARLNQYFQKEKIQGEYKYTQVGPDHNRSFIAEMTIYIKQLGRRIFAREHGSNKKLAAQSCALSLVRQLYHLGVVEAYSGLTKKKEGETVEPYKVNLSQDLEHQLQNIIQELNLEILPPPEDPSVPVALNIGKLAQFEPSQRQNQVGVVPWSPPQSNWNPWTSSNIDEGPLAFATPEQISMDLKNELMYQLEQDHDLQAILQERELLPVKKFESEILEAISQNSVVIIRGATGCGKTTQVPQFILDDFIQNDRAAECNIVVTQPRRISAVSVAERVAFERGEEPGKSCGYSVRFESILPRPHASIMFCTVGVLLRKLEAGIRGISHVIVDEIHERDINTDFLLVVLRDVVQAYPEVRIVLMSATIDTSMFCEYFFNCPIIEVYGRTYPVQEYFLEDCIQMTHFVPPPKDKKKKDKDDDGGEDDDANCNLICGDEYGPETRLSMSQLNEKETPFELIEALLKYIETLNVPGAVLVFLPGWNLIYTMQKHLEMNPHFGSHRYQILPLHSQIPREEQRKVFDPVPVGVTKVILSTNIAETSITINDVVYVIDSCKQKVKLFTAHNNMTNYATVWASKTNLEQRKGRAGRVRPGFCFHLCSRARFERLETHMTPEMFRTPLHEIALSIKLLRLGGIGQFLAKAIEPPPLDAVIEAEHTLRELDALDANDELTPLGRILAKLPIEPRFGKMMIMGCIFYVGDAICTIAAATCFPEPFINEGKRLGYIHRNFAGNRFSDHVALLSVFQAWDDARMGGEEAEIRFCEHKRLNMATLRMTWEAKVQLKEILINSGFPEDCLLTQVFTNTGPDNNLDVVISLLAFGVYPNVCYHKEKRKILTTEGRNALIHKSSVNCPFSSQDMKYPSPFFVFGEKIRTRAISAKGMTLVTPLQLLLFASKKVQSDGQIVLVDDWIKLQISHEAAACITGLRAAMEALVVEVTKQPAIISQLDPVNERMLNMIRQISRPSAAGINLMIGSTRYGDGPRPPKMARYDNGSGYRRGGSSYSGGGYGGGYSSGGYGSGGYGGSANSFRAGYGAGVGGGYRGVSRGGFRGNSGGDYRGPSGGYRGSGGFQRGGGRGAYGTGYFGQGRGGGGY
UniProt P54845: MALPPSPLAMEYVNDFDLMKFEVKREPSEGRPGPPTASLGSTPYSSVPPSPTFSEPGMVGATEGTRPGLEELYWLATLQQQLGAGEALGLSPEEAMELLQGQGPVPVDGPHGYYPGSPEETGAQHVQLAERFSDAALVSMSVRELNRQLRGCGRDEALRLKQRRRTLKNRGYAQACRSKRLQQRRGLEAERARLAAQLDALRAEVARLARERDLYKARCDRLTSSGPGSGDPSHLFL
UniProt P54846: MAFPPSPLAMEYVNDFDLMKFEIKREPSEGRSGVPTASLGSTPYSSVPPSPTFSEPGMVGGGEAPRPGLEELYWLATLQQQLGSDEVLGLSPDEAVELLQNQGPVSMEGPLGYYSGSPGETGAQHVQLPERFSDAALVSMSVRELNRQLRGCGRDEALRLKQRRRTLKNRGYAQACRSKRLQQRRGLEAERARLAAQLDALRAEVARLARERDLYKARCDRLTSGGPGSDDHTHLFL
UniProt A0A3Q1M155: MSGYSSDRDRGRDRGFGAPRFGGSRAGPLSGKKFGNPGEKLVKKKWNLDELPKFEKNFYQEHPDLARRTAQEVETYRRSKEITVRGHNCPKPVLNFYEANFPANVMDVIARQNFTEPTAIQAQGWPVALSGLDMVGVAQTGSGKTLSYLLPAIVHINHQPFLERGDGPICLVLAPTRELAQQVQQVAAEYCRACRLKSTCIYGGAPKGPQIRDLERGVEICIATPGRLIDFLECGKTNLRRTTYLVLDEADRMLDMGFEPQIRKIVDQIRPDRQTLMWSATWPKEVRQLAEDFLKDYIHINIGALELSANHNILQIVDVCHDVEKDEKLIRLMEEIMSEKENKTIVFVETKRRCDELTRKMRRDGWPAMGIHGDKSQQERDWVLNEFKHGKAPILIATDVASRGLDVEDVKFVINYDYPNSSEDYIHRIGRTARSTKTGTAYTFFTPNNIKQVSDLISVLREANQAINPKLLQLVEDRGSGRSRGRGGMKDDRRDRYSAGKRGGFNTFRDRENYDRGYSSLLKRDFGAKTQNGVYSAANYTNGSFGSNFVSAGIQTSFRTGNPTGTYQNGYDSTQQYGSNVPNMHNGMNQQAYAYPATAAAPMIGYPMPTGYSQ
UniProt P17844: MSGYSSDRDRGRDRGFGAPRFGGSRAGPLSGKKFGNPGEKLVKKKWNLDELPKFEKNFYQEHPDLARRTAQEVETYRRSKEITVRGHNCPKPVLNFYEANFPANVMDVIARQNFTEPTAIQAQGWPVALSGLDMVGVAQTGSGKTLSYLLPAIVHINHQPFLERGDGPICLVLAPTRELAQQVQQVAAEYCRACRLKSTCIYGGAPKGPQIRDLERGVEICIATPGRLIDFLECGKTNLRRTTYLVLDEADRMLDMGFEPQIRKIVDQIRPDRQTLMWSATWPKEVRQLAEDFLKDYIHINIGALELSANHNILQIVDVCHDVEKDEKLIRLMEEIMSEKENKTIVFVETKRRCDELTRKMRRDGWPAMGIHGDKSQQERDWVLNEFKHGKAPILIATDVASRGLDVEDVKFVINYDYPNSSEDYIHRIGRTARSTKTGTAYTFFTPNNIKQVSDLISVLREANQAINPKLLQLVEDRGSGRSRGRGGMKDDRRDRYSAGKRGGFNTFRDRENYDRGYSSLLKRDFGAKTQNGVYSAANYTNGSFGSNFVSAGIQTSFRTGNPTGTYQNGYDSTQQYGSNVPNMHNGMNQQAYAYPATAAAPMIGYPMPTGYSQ
UniProt O70133: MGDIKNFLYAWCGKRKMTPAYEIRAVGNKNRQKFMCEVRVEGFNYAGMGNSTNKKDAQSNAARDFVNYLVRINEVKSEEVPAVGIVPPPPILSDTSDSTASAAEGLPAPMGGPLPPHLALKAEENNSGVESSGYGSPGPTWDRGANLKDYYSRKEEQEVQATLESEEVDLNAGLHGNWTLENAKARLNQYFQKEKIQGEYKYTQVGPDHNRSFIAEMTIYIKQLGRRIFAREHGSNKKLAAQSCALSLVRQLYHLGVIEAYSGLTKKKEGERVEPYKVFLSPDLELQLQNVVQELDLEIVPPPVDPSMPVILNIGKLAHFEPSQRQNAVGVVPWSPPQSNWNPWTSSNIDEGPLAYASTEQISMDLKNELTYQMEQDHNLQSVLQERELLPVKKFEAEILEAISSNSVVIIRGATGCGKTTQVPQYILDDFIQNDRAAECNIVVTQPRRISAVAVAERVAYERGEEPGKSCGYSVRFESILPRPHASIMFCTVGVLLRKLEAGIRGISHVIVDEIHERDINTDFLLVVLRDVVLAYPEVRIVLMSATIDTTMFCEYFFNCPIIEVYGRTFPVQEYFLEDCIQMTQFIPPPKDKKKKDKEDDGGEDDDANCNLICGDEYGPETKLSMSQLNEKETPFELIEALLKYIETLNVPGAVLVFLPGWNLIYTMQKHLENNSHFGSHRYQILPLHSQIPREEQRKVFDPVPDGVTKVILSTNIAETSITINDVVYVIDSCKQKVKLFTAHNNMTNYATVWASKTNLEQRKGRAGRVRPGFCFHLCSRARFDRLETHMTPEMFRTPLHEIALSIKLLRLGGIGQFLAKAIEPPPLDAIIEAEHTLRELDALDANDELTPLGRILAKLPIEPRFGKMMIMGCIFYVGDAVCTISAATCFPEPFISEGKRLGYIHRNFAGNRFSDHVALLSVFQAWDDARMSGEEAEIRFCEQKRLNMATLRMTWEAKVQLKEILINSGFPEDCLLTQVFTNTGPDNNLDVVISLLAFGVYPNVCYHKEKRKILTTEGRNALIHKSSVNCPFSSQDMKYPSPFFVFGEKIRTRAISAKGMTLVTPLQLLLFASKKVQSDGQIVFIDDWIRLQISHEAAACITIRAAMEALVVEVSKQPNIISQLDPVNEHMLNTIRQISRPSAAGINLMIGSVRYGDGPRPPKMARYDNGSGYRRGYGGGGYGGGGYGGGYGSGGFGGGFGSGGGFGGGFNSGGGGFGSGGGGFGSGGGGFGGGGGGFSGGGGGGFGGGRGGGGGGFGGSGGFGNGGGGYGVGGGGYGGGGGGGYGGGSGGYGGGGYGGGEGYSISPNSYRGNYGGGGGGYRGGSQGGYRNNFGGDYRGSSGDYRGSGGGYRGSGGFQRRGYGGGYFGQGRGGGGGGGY

In experiment [1] the target is DHX9, bovine retina (bovine (endogenous in bovine retina)) (UniProt Q28141). Nature of the experiment: co-IP; nuclear fraction of bovine retina in co-IP binding buffer, sonicated; lysates treated 30 min at 37°C with RNaseOUT (control), RNase A, RNase H or DNase I; IP with NRL, DHX9 or DDX5 antibody on Dynabeads Protein A overnight at 4°C; immunoblot.
Experiment [2] has as its target NRL, endogenous in bovine retina (bovine (endogenous in bovine retina)) (UniProt F1N4J1). The description is as above.
Experiment [3] addresses DHX9, HEK293 cells (human (endogenous in HEK293)) (UniProt Q08211). The experiment can be described thus: co-IP; HEK293 cells overexpressing NRL, lysed in 40 mM Tris-HCl pH 8.0, 150 mM NaCl, 2 mM EDTA, 0.2% NP-40; lysates treated 30 min at 37°C with RNaseOUT (control), RNase A, RNase H or DNase I; IP with NRL, DHX9 or DDX5 antibody on Dynabeads Protein A overnight at 4°C; immunoblot.

The target in experiment [4] is human NRL fused to GST (human) (UniProt P54845). The experiment can be described thus: pull-down; GST-NRL on Glutathione Sepharose beads incubated 2 hr at 4°C with nuclear fraction from bovine retina with 25 U of benzonase (digests all nucleic acids); immunoblot; only the target purified.
The target is the same in experiment [5]. Nature of the experiment: pull-down; GST-NRL on Glutathione Sepharose beads incubated 2 hr at 4°C with nuclear fraction from bovine retina, without benzonase; washed in PBS with 1% Triton X-100; immunoblot; purified GST as control; only the target purified.
Experiment [6] concerns the target NRL, endogenous in mouse retina (mouse (endogenous in mouse retina)) (UniProt P54846). The experiment can be described thus: proximity ligation; Duolink PLA on sections of adult mouse retina with anti-NRL and anti-DHX9 or anti-DDX5 antibodies; Nrl KO retina as control.

With “DDX5, bovine retina (from UniProt A0A3Q1M155 1-614)”, the binding entry in experiment [1] and in experiment [2] was “binds” in each case. Regarding “Xpress-tagged human NRL (from UniProt P54845 1-237)”, the binding entry in experiment [3] is “binds”. On to “DHX9, bovine retina (from UniProt Q28141 1-1287)”, for which the binding entry in experiment [4], in experiment [5] and in experiment [2] was “binds” in each case.

With “NRL, endogenous in bovine retina (from UniProt F1N4J1 1-262)”, the binding entry in experiment [1] was “binds”. Regarding “DDX5, HEK293 cells (from UniProt P17844 1-614)”, in experiment [3], the binding result is recorded as “binds”. Take “DHX9, mouse retina (from UniProt O70133 1-1380)”: the binding result in experiment [6] is on record as “binds”.

Source of the values: paper PMC11884789.
